Taken from: PubChem BioAssay AID1259405 (NCATS, 2018)

Screen: 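Silenced genes that increase secreted GFP made by CHO cells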 (primary screen)
System: Chinese hamster CHO-K1 ovary cells with stable secreted eGFP expression
Reagent: single siRNA against mouse genes, 0.8 pmol siRNA per well (2 µl of 400 nM stock)
Timing: 3 days
Read-out: 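Per-well intracellular GFP measured by laser scanning cytometry, plus viability from ATP luminescence, each relative to plate median of non-targeting control wells, in %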
Scale: GFP, % of control: higher = more GFP per well, higher productivity; viability (ATP), % of control: higher = more viable cells (more ATP)
Rule for the call: 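Called active when intracellular GFP, relative to negative control, is at or above 120%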
Here is a random part of about 50,000 reagents. Of all reagents, about 4,000 (8%) are marked active. 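Mouse siRNA library applied to hamster cells; one well for each siRNA.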 Reagents against one gene are numbered here.

Mef2d (myocyte enhancer factor 2D) #1: GFP, % of control = 84.6; viability (ATP), % of control = 83.5; activity call = inactive
Mef2d (myocyte enhancer factor 2D) #2: GFP, % of control = 88.3; viability (ATP), % of control = 72; activity call = inactive
Mef2d (myocyte enhancer factor 2D) #3: GFP, % of control = 85.5; viability (ATP), % of control = 96.6; activity call = inactive
Ap1b1 (adaptor protein complex AP-1, beta 1 subunit) #1: GFP, % of control = 109; viability (ATP), % of control = 137; activity call = inactive
Ap1b1 (adaptor protein complex AP-1, beta 1 subunit) #2: GFP, % of control = 91.1; viability (ATP), % of control = 79.1; activity call = inactive
Or1o11 (olfactory receptor family 1 subfamily O member 11) #1: GFP, % of control = 25.3; viability (ATP), % of control = 17.4; activity call = inactive
Or1o11 (olfactory receptor family 1 subfamily O member 11) #2: GFP, % of control = 98.8; viability (ATP), % of control = 49.9; activity call = inactive
Or1o11 (olfactory receptor family 1 subfamily O member 11) #3: GFP, % of control = 32.5; viability (ATP), % of control = 40.9; activity call = inactive
Irs4 (insulin receptor substrate 4) #1: GFP, % of control = 92.3; viability (ATP), % of control = 70.2; activity call = inactive
Irs4 (insulin receptor substrate 4) #2: GFP, % of control = 79.6; viability (ATP), % of control = 79.1; activity call = inactive
Irs4 (insulin receptor substrate 4) #3: GFP, % of control = 40.7; viability (ATP), % of control = 72.8; activity call = inactive
Gpr31b (G protein-coupled receptor 31, D17Leh66b region) #1: GFP, % of control = 71.3; viability (ATP), % of control = 63.1; activity call = inactive
Gpr31b (G protein-coupled receptor 31, D17Leh66b region) #2: GFP, % of control = 85.9; viability (ATP), % of control = 55.8; activity call = inactive
Gpr31b (G protein-coupled receptor 31, D17Leh66b region) #3: GFP, % of control = 69.8; viability (ATP), % of control = 45.7; activity call = inactive
Kat5 (K(lysine) acetyltransferase 5) #1: GFP, % of control = 74.3; viability (ATP), % of control = 98.6; activity call = inactive
Kat5 (K(lysine) acetyltransferase 5) #2: GFP, % of control = 63.6; viability (ATP), % of control = 95.1; activity call = inactive
Kat5 (K(lysine) acetyltransferase 5) #3: GFP, % of control = 77.4; viability (ATP), % of control = 51.9; activity call = inactive
Ppp2r5e (protein phosphatase 2, regulatory subunit B', epsilon) #1: GFP, % of control = 224; viability (ATP), % of control = 123; activity call = active
Ppp2r5e (protein phosphatase 2, regulatory subunit B', epsilon) #2: GFP, % of control = 83.2; viability (ATP), % of control = 82.2; activity call = inactive
Ppp2r5e (protein phosphatase 2, regulatory subunit B', epsilon) #3: GFP, % of control = 151; viability (ATP), % of control = 85.3; activity call = active
Ethe1 (ethylmalonic encephalopathy 1) #1: GFP, % of control = 101; viability (ATP), % of control = 106; activity call = inactive
Ethe1 (ethylmalonic encephalopathy 1) #2: GFP, % of control = 112; viability (ATP), % of control = 92.2; activity call = inactive
Ethe1 (ethylmalonic encephalopathy 1) #3: GFP, % of control = 89.2; viability (ATP), % of control = 88.1; activity call = inactive
Arhgap25 (Rho GTPase activating protein 25) #1: GFP, % of control = 45.1; viability (ATP), % of control = 64.1; activity call = inactive
Arhgap25 (Rho GTPase activating protein 25) #2: GFP, % of control = 74.8; viability (ATP), % of control = 80.7; activity call = inactive
Arhgap25 (Rho GTPase activating protein 25) #3: GFP, % of control = 106; viability (ATP), % of control = 55.2; activity call = inactive
Itk (IL2 inducible T cell kinase): GFP, % of control = 93.3; viability (ATP), % of control = 73.7; activity call = inactive

A stretch from the list above, for reference:
Ap1b1 (adaptor protein complex AP-1, beta 1 subunit) #2: GFP, % of control = 91.1; viability (ATP), % of control = 79.1; activity call = inactive
Or1o11 (olfactory receptor family 1 subfamily O member 11) #1: GFP, % of control = 25.3; viability (ATP), % of control = 17.4; activity call = inactive
Or1o11 (olfactory receptor family 1 subfamily O member 11) #2: GFP, % of control = 98.8; viability (ATP), % of control = 49.9; activity call = inactive
Or1o11 (olfactory receptor family 1 subfamily O member 11) #3: GFP, % of control = 32.5; viability (ATP), % of control = 40.9; activity call = inactive
Irs4 (insulin receptor substrate 4) #1: GFP, % of control = 92.3; viability (ATP), % of control = 70.2; activity call = inactive
Irs4 (insulin receptor substrate 4) #2: GFP, % of control = 79.6; viability (ATP), % of control = 79.1; activity call = inactive
Irs4 (insulin receptor substrate 4) #3: GFP, % of control = 40.7; viability (ATP), % of control = 72.8; activity call = inactive
Gpr31b (G protein-coupled receptor 31, D17Leh66b region) #1: GFP, % of control = 71.3; viability (ATP), % of control = 63.1; activity call = inactive

Continued:
Nfkbil1 #1: GFP, % of control = 117; viability (ATP), % of control = 73.6; activity call = inactive
Nfkbil1 #2: GFP, % of control = 68.7; viability (ATP), % of control = 55.3; activity call = inactive
Nfkbil1 #3: GFP, % of control = 87.8; viability (ATP), % of control = 91.6; activity call = inactive
1700073E17Rik (RIKEN cDNA 1700073E17 gene) #1: GFP, % of control = 123; viability (ATP), % of control = 76.3; activity call = active
1700073E17Rik (RIKEN cDNA 1700073E17 gene) #2: GFP, % of control = 108; viability (ATP), % of control = 63.7; activity call = inactive
1700073E17Rik (RIKEN cDNA 1700073E17 gene) #3: GFP, % of control = 82.9; viability (ATP), % of control = 87.7; activity call = inactive
Slc10a3 #1: GFP, % of control = 120; viability (ATP), % of control = 92.4; activity call = active
Slc10a3 #2: GFP, % of control = 78.2; viability (ATP), % of control = 75.9; activity call = inactive
Slc10a3 #3: GFP, % of control = 74.6; viability (ATP), % of control = 91.2; activity call = inactive
Twf1 (twinfilin actin binding protein 1) #1: GFP, % of control = 60.5; viability (ATP), % of control = 40.2; activity call = inactive
Twf1 (twinfilin actin binding protein 1) #2: GFP, % of control = 91.2; viability (ATP), % of control = 81.5; activity call = inactive
Ldhb (lactate dehydrogenase B) #1: GFP, % of control = 97.6; viability (ATP), % of control = 104; activity call = inactive
Ldhb (lactate dehydrogenase B) #2: GFP, % of control = 98.6; viability (ATP), % of control = 78.8; activity call = inactive
Ldhb (lactate dehydrogenase B) #3: GFP, % of control = 66.2; viability (ATP), % of control = 69; activity call = inactive
Rdh5 (retinol dehydrogenase 5) #1: GFP, % of control = 82.9; viability (ATP), % of control = 83; activity call = inactive
Rdh5 (retinol dehydrogenase 5) #2: GFP, % of control = 52.4; viability (ATP), % of control = 41.2; activity call = inactive
Rdh5 (retinol dehydrogenase 5) #3: GFP, % of control = 110; viability (ATP), % of control = 88.5; activity call = inactive
Szrd1 (SUZ RNA binding domain containing 1) #1: GFP, % of control = 90.9; viability (ATP), % of control = 85.7; activity call = inactive
Szrd1 (SUZ RNA binding domain containing 1) #2: GFP, % of control = 63.1; viability (ATP), % of control = 85.8; activity call = inactive
Szrd1 (SUZ RNA binding domain containing 1) #3: GFP, % of control = 88.1; viability (ATP), % of control = 58.4; activity call = inactive
Rpgrip1 (retinitis pigmentosa GTPase regulator interacting protein 1) #1: GFP, % of control = 55.2; viability (ATP), % of control = 53.1; activity call = inactive
Rpgrip1 (retinitis pigmentosa GTPase regulator interacting protein 1) #2: GFP, % of control = 60.1; viability (ATP), % of control = 65.8; activity call = inactive
Rpgrip1 (retinitis pigmentosa GTPase regulator interacting protein 1) #3: GFP, % of control = 56.4; viability (ATP), % of control = 49.9; activity call = inactive
Vmn1r63 (vomeronasal 1 receptor 63) #1: GFP, % of control = 56.3; viability (ATP), % of control = 43.8; activity call = inactive
Vmn1r63 (vomeronasal 1 receptor 63) #2: GFP, % of control = 119; viability (ATP), % of control = 82.1; activity call = inactive
Vmn1r63 (vomeronasal 1 receptor 63) #3: GFP, % of control = 66.1; viability (ATP), % of control = 81.8; activity call = inactive
